The source of these data is ChEMBL document CHEMBL3425412, “Additional sesterterpenes and a nortriterpene saponin from the sponge Clathria gombawuiensis” (2015).

The assay deals with Escherichia coli. The assay is described as follows: Antimicrobial activity against Escherichia coli ATCC 35270 after 24 hrs by twofold dilution method. The assay is classed as functional. Conditions: ATCC 35270, 24 h.

Converted amounts (≈) assume the structure as drawn.

For orientation: MIC means the smallest concentration in the dilution series that meets the test's criterion for growth inhibition.

For `CC1(C)S[C@@H]2[C@H](NC(=O)[C@H](N)c3ccccc3)C(=O)N2[C@H]1C(=O)O` [AMPICILLIN], it took 3.1 µg/mL (≈ 8.87 µM) to inhibit growth (MIC).
